Test results published in article PMC3493543.
Positions count from the first letter of the chain named. Names and notes keep the numbering of the source. Results are given in words; binding and its absence hold for the method and conditions named. For some assays here: Binding seen in cells or lysates may run through a third protein. Some results given as binding are weak or reduced against the parent protein; the word gives no strength. Where a sequence is shown, tags or fusion partners need not be part of it. One block for each molecule: values may come before it.

By UniProt entry, the sequences of proteins in these tests, tags left out.
UniProt Q8C5D8: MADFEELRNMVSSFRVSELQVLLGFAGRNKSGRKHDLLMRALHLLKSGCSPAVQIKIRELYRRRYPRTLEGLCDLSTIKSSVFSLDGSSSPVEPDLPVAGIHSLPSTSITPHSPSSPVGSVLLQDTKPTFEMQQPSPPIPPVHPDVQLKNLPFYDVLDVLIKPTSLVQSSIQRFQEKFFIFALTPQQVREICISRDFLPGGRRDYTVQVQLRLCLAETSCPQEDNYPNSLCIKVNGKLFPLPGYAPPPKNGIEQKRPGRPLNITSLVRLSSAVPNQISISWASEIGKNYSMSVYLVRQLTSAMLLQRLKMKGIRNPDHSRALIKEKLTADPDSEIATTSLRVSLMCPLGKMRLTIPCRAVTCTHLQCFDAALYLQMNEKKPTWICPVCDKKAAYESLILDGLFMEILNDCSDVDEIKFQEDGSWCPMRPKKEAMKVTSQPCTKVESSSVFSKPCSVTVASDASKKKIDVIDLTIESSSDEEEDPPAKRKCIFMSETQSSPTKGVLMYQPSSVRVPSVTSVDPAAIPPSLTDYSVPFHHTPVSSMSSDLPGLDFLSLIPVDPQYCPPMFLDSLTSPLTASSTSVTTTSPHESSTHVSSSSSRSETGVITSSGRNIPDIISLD
UniProt P63280: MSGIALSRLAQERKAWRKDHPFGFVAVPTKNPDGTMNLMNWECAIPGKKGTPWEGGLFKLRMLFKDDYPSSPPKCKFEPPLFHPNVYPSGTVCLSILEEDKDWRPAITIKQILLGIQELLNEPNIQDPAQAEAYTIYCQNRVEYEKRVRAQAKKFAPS

How the values were obtained:
[1] = target: T1, full-length human GTF2IRD1 1α1 isoform fused to the GAL4 DNA-binding domain (pGBKT7-GTF2IRD1) (human) (UniProt Q9UHL9); assay: two-hybrid; Matchmaker system; co-transformation of pGBKT7 bait and pGADT7 prey into S. cerevisiae AH109; double transformants from DDO plates re-spotted on QDO plates with x-α-galactosidase (HIS3, ADE2, MEL1 markers)
T1 sequence: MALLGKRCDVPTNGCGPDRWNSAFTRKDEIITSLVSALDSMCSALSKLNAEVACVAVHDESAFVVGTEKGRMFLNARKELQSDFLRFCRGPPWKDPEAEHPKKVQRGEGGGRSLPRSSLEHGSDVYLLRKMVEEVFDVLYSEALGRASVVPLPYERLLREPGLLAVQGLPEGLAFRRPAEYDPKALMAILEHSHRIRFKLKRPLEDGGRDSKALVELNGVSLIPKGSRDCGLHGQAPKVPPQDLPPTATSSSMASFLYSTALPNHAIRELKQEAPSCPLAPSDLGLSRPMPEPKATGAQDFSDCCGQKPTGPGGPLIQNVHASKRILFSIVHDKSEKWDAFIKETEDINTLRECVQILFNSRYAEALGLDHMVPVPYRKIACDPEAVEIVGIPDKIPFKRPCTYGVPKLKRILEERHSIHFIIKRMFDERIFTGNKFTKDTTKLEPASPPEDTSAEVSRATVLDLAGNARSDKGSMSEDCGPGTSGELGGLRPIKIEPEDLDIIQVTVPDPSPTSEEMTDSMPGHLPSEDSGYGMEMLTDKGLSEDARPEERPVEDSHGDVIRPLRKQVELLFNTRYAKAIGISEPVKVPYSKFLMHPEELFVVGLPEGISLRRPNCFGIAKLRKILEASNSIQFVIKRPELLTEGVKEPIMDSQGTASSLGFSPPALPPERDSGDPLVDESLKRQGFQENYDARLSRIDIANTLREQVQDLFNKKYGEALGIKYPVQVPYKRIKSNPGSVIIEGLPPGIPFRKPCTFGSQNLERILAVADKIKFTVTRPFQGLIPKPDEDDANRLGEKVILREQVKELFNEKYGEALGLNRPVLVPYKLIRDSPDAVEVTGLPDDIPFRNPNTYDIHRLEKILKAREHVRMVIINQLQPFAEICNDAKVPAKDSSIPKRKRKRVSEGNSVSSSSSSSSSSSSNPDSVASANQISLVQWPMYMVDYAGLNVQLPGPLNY

[2] = target: T1, full-length human GTF2IRD1 1α1 isoform fused to the GAL4 DNA-binding domain (pGBKT7-GTF2IRD1) (human); assay: two-hybrid; library screen: universal normalized mouse cDNA library (Mate & Plate, Clontech) with pGBKT7-GTF2IRD1 as bait; QDO selection, α-galactosidase-positive colonies
[3] = target: T1, full-length human GTF2IRD1 1α1 isoform fused to the GAL4 DNA-binding domain (pGBKT7-GTF2IRD1) (human); assay: two-hybrid; Matchmaker system; co-transformation of pGBKT7 bait and pGADT7 prey into S. cerevisiae AH109; double transformants from DDO plates re-spotted on QDO plates with x-α-galactosidase (HIS3, ADE2, MEL1 markers); remark: listed apart in the source
[4] = target: GFP-PIASxβ (pEGFP-PIASxβ) (mouse) (UniProt Q8C5D8); assay: co-IP; HEK293 cells co-transfected with GFP-PIASxβ or EGFP and GTF2IRD1 or GTF2IRD1-2KR; immunoprecipitation with anti-GFP antibody; blot with anti-GTF2IRD1; densitometry of SUMOylated and non-SUMOylated bands
[5] = target: T2, GFP-ZMYM5 (pEGFP-ZMYM5) (mouse) (UniProt Q3U2E2); assay: co-IP; HEK293 cells co-transfected; lysis in PBS with 0.1% Triton-X; immunoprecipitation with anti-GFP antibody on beads at 4°C overnight; blot with anti-Myc (Figure 4E) or anti-GTF2IRD1 (Figure 5B, cells also co-transfected with pMT3-HA-SUMO1)
T2 sequence: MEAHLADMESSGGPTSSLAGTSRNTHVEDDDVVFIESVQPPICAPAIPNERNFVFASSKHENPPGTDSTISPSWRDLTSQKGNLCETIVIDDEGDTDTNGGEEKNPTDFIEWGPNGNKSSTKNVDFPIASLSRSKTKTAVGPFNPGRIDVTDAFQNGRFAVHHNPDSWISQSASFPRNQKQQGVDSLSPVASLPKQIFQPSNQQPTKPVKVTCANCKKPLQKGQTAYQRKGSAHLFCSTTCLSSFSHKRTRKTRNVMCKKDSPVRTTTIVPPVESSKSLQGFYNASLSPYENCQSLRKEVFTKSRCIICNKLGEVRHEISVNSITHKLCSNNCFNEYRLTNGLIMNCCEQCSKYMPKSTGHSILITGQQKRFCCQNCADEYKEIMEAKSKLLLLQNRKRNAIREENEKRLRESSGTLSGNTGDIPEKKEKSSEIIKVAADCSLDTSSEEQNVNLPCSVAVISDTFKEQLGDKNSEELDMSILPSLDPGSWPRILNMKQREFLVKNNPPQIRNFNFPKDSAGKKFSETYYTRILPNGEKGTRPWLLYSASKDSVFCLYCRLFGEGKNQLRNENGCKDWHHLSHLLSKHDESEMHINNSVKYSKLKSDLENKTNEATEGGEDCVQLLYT

B1: amino-terminal truncated ZMYM5 lacking the first 62 amino acids, prey clone isolated in the yeast 2-hybrid screen (pGADT7-ZMYM5) (domain or fragment, UniProt Q3U2E2 63-627)
chain: PPGTDSTISPSWRDLTSQKGNLCETIVIDDEGDTDTNGGEEKNPTDFIEWGPNGNKSSTKNVDFPIASLSRSKTKTAVGPFNPGRIDVTDAFQNGRFAVHHNPDSWISQSASFPRNQKQQGVDSLSPVASLPKQIFQPSNQQPTKPVKVTCANCKKPLQKGQTAYQRKGSAHLFCSTTCLSSFSHKRTRKTRNVMCKKDSPVRTTTIVPPVESSKSLQGFYNASLSPYENCQSLRKEVFTKSRCIICNKLGEVRHEISVNSITHKLCSNNCFNEYRLTNGLIMNCCEQCSKYMPKSTGHSILITGQQKRFCCQNCADEYKEIMEAKSKLLLLQNRKRNAIREENEKRLRESSGTLSGNTGDIPEKKEKSSEIIKVAADCSLDTSSEEQNVNLPCSVAVISDTFKEQLGDKNSEELDMSILPSLDPGSWPRILNMKQREFLVKNNPPQIRNFNFPKDSAGKKFSETYYTRILPNGEKGTRPWLLYSASKDSVFCLYCRLFGEGKNQLRNENGCKDWHHLSHLLSKHDESEMHINNSVKYSKLKSDLENKTNEATEGGEDCVQLLYT
binding [2]: binds
binding [3]: binds

B3: GTF2IRD1-2KR (K271R/K495R double mutant), untagged (pcDNA-2KR) (protein, UniProt Q9UHL9 1-959)
chain: T1 sequence with K271R, K495R
binding [4]: binds
binding [5]: binds

B4: Myc-GTF2IRD1 (pMyc-GTF2IRD1) (protein, UniProt Q9UHL9 1-959)
chain: T1 sequence
binding [5]: binds

Second part, the molecule after the results:

binding [1]: binds
Molecule: UBC9 fused to the GAL4 activation domain (pGADT7-UBC9) (from UniProt P63280 1-158) (enzyme)

binding [4]: binds
binding [5]: binds
B2: GTF2IRD1, non-SUMOylated, untagged (pcDNA-GTF2IRD1) (protein, UniProt Q9UHL9 1-959)
chain: T1 sequence
